In this data set the test system is hLRH-1 expression. Briefly: hLRH-1 transcript (RT-qPCR) and protein (Western blot, anti-Flag) levels in HepG2-hLRH-1 cells. Format: cell-based, human.

Entries after “also recorded” stand apart in the source; their conditions may differ.

As to `CCCNC(=O)c1cc(C(C)(C)C)cc(C(C)(C)C)c1O` [Compound 8, 3,5-di-tert-butyl-2-hydroxy-N-propylbenzamide], the hLRH-1 transcripts result (HepG2-hLRH-1 cells expressing low levels of hLRH-1, PME8 10 μM) was “did not change”. In addition, for the setting “HepG2-hLRH-1 cells, Western blot with anti-Flag antibody, listed as PME8”, the hLRH-1 protein levels entry was “did not change; also recorded: unaffected”.

Values taken from patent publication US10980755B2, “LRH-1 modulators” (THE REGENTS OF THE UNIVERSITY OF CALIFORNIA, priority 2015, dated 2021).
